Measurements as given in publication PMC12040169 (PLOS Biology, 2025).
The other results are listed elsewhere or left out.

system: T1, CTL2-GFP (C. trachomatis L2/434/Bu, GFP-expressing); design: species or system HeLa; Intracellular C. trachomatis growth in HeLa cells, bulk GFP fluorescence relative to DMSO; details: bulk GFP, single well; 28.5 h, 10 µM; inhibitor
T1 construct: L2/434/Bu, GFP-expressing

| Compound | % of control remaining [%] |
| --- | --- |
| CSc1cccc(CN2C[C@H]3CN(C(=O)C4CCC4)C[C@@]3(C(=O)O)C2)c1 [CBK307645] | 159.182 |
| CN1C2C=C(N(CCc3ccccc3)C(=O)c3ccc(Cl)cc3)CC1CC2 (stereo not drawn) [CBK262604C] | 100 |
| Cc1noc(C)c1C(=O)N1CCN(CCc2ccccc2)CC1 [CBK200225] | 96.2045 |
| Oc1ccc(/C=N/c2nnn[nH]2)cc1 [CBK260976] | 92.3364 |
| c1cn2cnnc2c(N2CCOC(c3ccsc3)C2)n1 (stereo not drawn) [CBK306379] | 104.29 |
| Cc1ccc2nc(CSc3ncnc4sc(C)cc34)[nH]c2c1 [CBK270047] | 112.732 |
| COc1ccccc1N1C(=O)c2ccc(C(=O)Nc3cc([N+](=O)[O-])ccc3O)cc2C1=O [CBK264272] | 128.728 |
| O=C1c2ccccc2CN1c1cccc(Cl)c1Cl [CBK109916] | 116.386 |
| COCOc1ccc(-c2ncc(OCCN3CCOCC3)nc2N)cc1 [CBK145100] | 100 |
| O=C(Nc1cncc(OC2CCNCC2)n1)c1cccnc1 [CBK036375T] | 110.046 |
| Cc1nc(C2CCCCN2C(=O)C2CCCCC2)ncc1C(=O)NCc1ccc(F)cc1 (stereo not drawn) [CBK285554] | 138.832 |
| O=S(=O)(c1ccc2ccccc2c1)N1CCN(CCCOc2ccccc2Cl)CC1 [CBK267018] | 141.684 |
| COc1cc(-c2nnc(CSc3nc4sc(C(=O)O)c(C)c4c(=O)[nH]3)o2)cc(OC)c1OC [CBK296973] | 146.884 |
| COc1ccc(Sc2nc(SC)nc(-c3ccccc3)c2C#N)cc1 [CBK291212] | 98.5798 |
| CCCc1nnc2sc(C3CCC(=O)N(C(C)C)C3)nn12 (stereo not drawn) [CBK306942] | 103.712 |
| Cc1nc(CN2CCC(Oc3nccnc3OCc3ccc(Cl)c(Cl)c3)CC2)cs1 [CBK153787] | 102.467 |
| Cc1cc(I)ccc1NC(=O)CCN1C(=O)c2cccc([N+](=O)[O-])c2C1=O [CBK263128] | 100 |
| Nc1c(C(F)(F)F)cc(Cl)nc1Cl [CBK005620] | 105.039 |
| O=c1ccc2c(-c3ccsc3)ccnc2[nH]1 [CBK073724] | 122.653 |
| c1ccc(CNc2nc(-c3ccsc3)cn3ccnc23)cc1 [CBK037868] | 140.224 |
| Cn1cnc(C(=O)N2CCC[C@@H]3NC(=O)c4ccccc4OCCCCC[C@@H]32)c1 [CBK292122] | 85.6683 |
| COc1cc(C=Cc2cc(C(=O)O)c3ccccc3n2)cc(Cl)c1OC(C)C [CBK296941] | 152.256 |
| Cc1cc(CN2CCC(N(C)Cc3nnc(C)n3C)C2)no1 (stereo not drawn) [CBK305088] | 120.576 |
| CN(C)CCN(Cc1cccnc1)C(=O)C1(c2ccccc2F)CC1 [CBK282771] | 82.4467 |
| FC(F)(F)c1ccc(Sc2ccncc2)nc1 [CBK115217] | 103.733 |
| OCCN1CCN(C(c2ccccc2)c2sc3ncnn3c2O)CC1 (stereo not drawn) [CBK287611] | 141.366 |

| Compound | % of control remaining [%] |
| --- | --- |
| CC(=O)/N=c1\[nH]c(NC(C)=O)nn1-c1ccccc1 [CBK287938] | 151.824 |
| Cc1ccccc1Cn1c(CN2CCCCC2C)nc2c1c(=O)n(C)c(=O)n2C (stereo not drawn) [CBK269199] | 144.642 |
| Cc1ccccc1NC(=O)c1c(NC(=O)Cc2ccccc2)sc2c1CCCC2 [CBK262572] | 90.3452 |
| CC(C)OC(=O)CCNC(=O)c1cccc(S(=O)(=O)N2CCCC2)c1 [CBK306090] | 163.496 |
| CC(=O)NCCN1CCC(O)(c2ccc(C)cc2)CC1 [CBK283321] | 134.701 |
| O=[N+]([O-])c1ccc(N2CCN(Cc3ccccc3)CC2)cc1NCc1ccccc1 [CBK045841] | 107.968 |
| COc1ccc(CN(C(=O)c2cccc(-n3cnnn3)c2)C2CC2)cc1 [CBK256997] | 125.997 |
| Cc1ccc(O)c(NC(=O)c2ccccc2-c2ccccc2C(=O)O)c1 [CBK266763] | 182.592 |
| O=C(O)CSc1nc2ccccc2n2cnnc12 [CBK269831] | 146.035 |
| Cc1nn(CC(=O)NC2CC2)c(=O)c2cc3sccc3n12 [CBK284047] | 138.405 |
| CCCC1=NNC(=O)C1Cc1c(F)cccc1Cl (stereo not drawn) [CBK067753] | 108.328 |
| COc1ccc(-c2cc(C(=O)NCCc3cccc(C(F)(F)F)c3)cnc2-c2ccccc2)cn1 [CBK036662] | 149.249 |
| O=C(O)Cc1ccc(NS(=O)(=O)c2ccc(F)cc2)cc1 [CBK269981] | 110.283 |
| CN(CC1(C)COC1)C(=O)CCc1nc2ccccc2[nH]1 [CBK281719] | 106.287 |
| CNCCOc1ccccc1O [CBK023215C] | 107.221 |
| O=C(O)CC(C(=O)O)N1C(=O)/C(=C\C(Cl)=C/c2ccc([N+](=O)[O-])cc2)SC1=S (stereo not drawn) [CBK261013] | 100 |
| CCOC(=O)c1cnc2ccc(Cl)cc2c1N1CCOCC1 [CBK307627] | 116.648 |
| OCCN1CC2(CCN(CCC(c3ccccc3)c3ccccc3)CC2)c2ccccc21 [CBK126765] | 100.027 |
| O=C(CN1CCCC(c2cccc(Cc3ccc(F)cc3)n2)C1)Nc1nccs1 (stereo not drawn) [CBK286503] | 91.1107 |
| CCn1cc(CN2CCCN(C(=O)c3cccn(C)c3=O)CC2)cn1 [CBK305375] | 125.553 |
| COc1ccc([N+](=O)[O-])cc1NC(=O)c1cc(Cl)c(OC)c(Cl)c1 [CBK268594] | 102.789 |
| COc1ccc(Cc2nnc(Nc3ccc(OC)cc3)[nH]c2=O)cc1 [CBK287385] | 126.351 |
| O=C(CCN1CCN(Cc2ccccc2)CC1)Nc1ccc(F)cc1 [CBK264261] | 80.0601 |
| CO[C@@H](C(=O)Nc1cnc(-c2cccc(C)c2)c(-c2ccco2)n1)c1ccccc1 [CBK037613] | 140.001 |
| CCOC(=O)C1CCN(C(=O)Cn2cnc3ccc(Br)cc3c2=O)CC1 [CBK306070] | 76.1103 |

Reprinted at random: 3 entries already listed, in no set order.

| Compound | % of control remaining [%] |
| --- | --- |
| Cc1nn(CC(=O)NC2CC2)c(=O)c2cc3sccc3n12 [CBK284047] | 138.405 |
| O=C(O)CSc1nc2ccccc2n2cnnc12 [CBK269831] | 146.035 |
| COc1ccc(CN(C(=O)c2cccc(-n3cnnn3)c2)C2CC2)cc1 [CBK256997] | 125.997 |
